Results taken from the supplement of paper PMC9233669.
Variants at the background level are over-represented here.

Tests used:
biotinyl-Trp-oxazolone = assay: self-aminoacylation, catalytic enhancement (BWO) (fold over background); higher = more active; k-Seq, kA / k0A0; sequences stand for … in GGGAAUGGAUCCACAUCUACGAAUUC…UUCACUGCAGACUUGACGAAGCUG
Summary of the method: (§1)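 Mutagenized RNA pools (0.43 μM; 21-nt variable region) were treated with 2–1250 μM of each biotinyl-aminoacyl-oxazolone. Conditions were 50 μL HEPES/NaCl/KCl/MgCl2/CaCl2 buffer, 5% acetonitrile, pH 6.9–7.0, room temperature, 90 minutes. Catalytic enhancement, the median kA relative to the uncatalyzed rate, was derived from streptavidin capture, qPCR and Illumina sequencing.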

biotinyl-Leu-oxazolone = assay: self-aminoacylation, catalytic enhancement (BLO) (fold over background); higher = more active; k-Seq, kA / k0A0; sequences stand for … in GGGAAUGGAUCCACAUCUACGAAUUC…UUCACUGCAGACUUGACGAAGCUG
Summary of the method: as §1

biotinyl-Val-oxazolone = assay: self-aminoacylation, catalytic enhancement (BVO) (fold over background); higher = more active; k-Seq, kA / k0A0; sequences stand for … in GGGAAUGGAUCCACAUCUACGAAUUC…UUCACUGCAGACUUGACGAAGCUG
Summary of the method: as §1

biotinyl-Ile-oxazolone = assay: self-aminoacylation, catalytic enhancement (BIO) (fold over background); higher = more active; k-Seq, kA / k0A0; sequences stand for … in GGGAAUGGAUCCACAUCUACGAAUUC…UUCACUGCAGACUUGACGAAGCUG
Summary of the method: as §1

biotinyl-Met-oxazolone = assay: self-aminoacylation, catalytic enhancement (BMO) (fold over background); higher = more active; k-Seq, kA / k0A0; sequences stand for … in GGGAAUGGAUCCACAUCUACGAAUUC…UUCACUGCAGACUUGACGAAGCUG
Summary of the method: as §1

biotinyl-Phe-oxazolone = assay: self-aminoacylation, catalytic enhancement (BFO) (fold over background); higher = more active; k-Seq, kA / k0A0; sequences stand for … in GGGAAUGGAUCCACAUCUACGAAUUC…UUCACUGCAGACUUGACGAAGCUG
Summary of the method: as §1

Sequence | self-aminoacylation (biotinyl-Trp-oxazolone) | self-aminoacylation (biotinyl-Leu-oxazolone) | self-aminoacylation (biotinyl-Val-oxazolone) | self-aminoacylation (biotinyl-Ile-oxazolone) | self-aminoacylation (biotinyl-Met-oxazolone) | self-aminoacylation (biotinyl-Phe-oxazolone)
AAAUUUGCUAGUAGUCGCAAG [Fam3.1 aminoacylation ribozyme variant] | 1.59 | 1.46 | 1.36 | 1.83 | 1.79 | 1.5
AACCUUGCUAAUAGUCGCAAG [Fam3.1 aminoacylation ribozyme variant] | 1.91 | 1.55 | 1.62 | 1.56 | 1.58 | 1.51
AAGAUUGCUAAUAGACGCAAG [Fam3.1 aminoacylation ribozyme variant] | 0.72 | 0.606 | 0.728 | 0.766 | 0.615 | 1.22
AAGAUUGCUAAUAGUUGCAAG [Fam3.1 aminoacylation ribozyme variant] | 1.18 | 0.923 | 1.16 | 1.58 | 1.32 | 1.73
AAGCUUGCUAAUAGUCGCUAG [Fam3.1 aminoacylation ribozyme variant] | 2 | 1.71 | 1.38 | 1.89 | 1.29 | 2.31
AAGGUUGCAAAUAGUCGCAAG [Fam3.1 aminoacylation ribozyme variant] | 1.66 | 1.2 | 1.08 | 1.41 | 1.02 | 1.44
AAGGUUGCUAAUACUCGCAAG [Fam3.1 aminoacylation ribozyme variant] | 1.09 | 1.19 | 0.974 | 1.3 | 0.921 | 1.62
AAGGUUGCUAAUAGUAGCAAG [Fam3.1 aminoacylation ribozyme variant] | 1.3 | 1.08 | 0.93 | 1.31 | 1.4 | 1.57
AAGGUUGCUAAUAGUCCCAAG [Fam3.1 aminoacylation ribozyme variant] | 1.4 | 0.775 | 1.44 | 1.15 | 0.856 | 2.86
AAGUAUGCUAAUAGUCGCAUG [Fam3.1 aminoacylation ribozyme variant] | 1.84 | 1.55 | 1.09 | 1.34 | 1.45 | 1.66
AAGUAUGCUAAUGGUCGCAAG [Fam3.1 aminoacylation ribozyme variant] | 0.826 | 0.846 | 0.958 | 0.913 | 0.914 | 1.01
AAGUAUGCUUAUAGUCGCAAG [Fam3.1 aminoacylation ribozyme variant] | 1.48 | 1.54 | 1.51 | 1.6 | 1.19 | 1.63
AAGUCUGCUAAUAGUAGCAAG [Fam3.1 aminoacylation ribozyme variant] | 1.67 | 1.44 | 1.08 | 0.968 | 1.24 | 1.42
AAGUCUGCUAAUAGUCGCACG [Fam3.1 aminoacylation ribozyme variant] | 1.04 | 1.14 | 0.982 | 0.995 | 1.11 | 1.38
AAGUCUGUUAAUAGUCGCAAG [Fam3.1 aminoacylation ribozyme variant] | 0.936 | 1.01 | 1.03 | 1.14 | 1.03 | 1.04
AAGUGUGCUAAUAGUCCCAAG [Fam3.1 aminoacylation ribozyme variant] | 2.02 | 1.24 | 1.28 | 1.34 | 1.17 | 3.77
AAGUGUGCUAAUAGUCGCAAU [Fam3.1 aminoacylation ribozyme variant] | 2.01 | 1.63 | 1.6 | 1.66 | 1.24 | 1.46
AAGUUCGCUAAUAGUAGCAAG [Fam3.1 aminoacylation ribozyme variant] | 1.24 | 1.28 | 1.26 | 1.67 | 1.55 | 3.5
AAGUUCGCUUAUAGUCGCAAG [Fam3.1 aminoacylation ribozyme variant] | 2.23 | 1.84 | 1.5 | 1.86 | 2.03 | 1.99
AAGUUUCCUAAUAAUCGCAAG [Fam3.1 aminoacylation ribozyme variant] | 0.471 | 0.923 | 0.814 | 1.08 | 0.705 | 1.11
AAGUUUCCUUAUAGUCGCAAG [Fam3.1 aminoacylation ribozyme variant] | 1.53 | 1.65 | 1.67 | 1.79 | 1.71 | 2.75
AAGUUUGAAAAUAGUCGCAAG [Fam3.1 aminoacylation ribozyme variant] | 1.6 | 1.85 | 1.54 | 1.55 | 1.79 | 1.66
AAGUUUGAUAAUAAUCGCAAG [Fam3.1 aminoacylation ribozyme variant] | 1.05 | 0.821 | 0.77 | 0.978 | 0.852 | 1.12
AAGUUUGAUAAUAUUCGCAAG [Fam3.1 aminoacylation ribozyme variant] | 1.23 | 1.28 | 1.05 | 1.39 | 1.38 | 1.31
AAGUUUGCCAAUAGCCGCAAG [Fam3.1 aminoacylation ribozyme variant] | 0.913 | 0.865 | 1.25 | 1.05 | 1.2 | 1.18
